Reference: paper PMC12477439

What was measured:
Experiment in all cases: co-IP; HA-tagged E1s and FLAG-tagged E2s expressed in vivo; the E2s pulled down the E1s; details in the Supporting Information
[1] = target: FLAG-tagged SlUBC34 (tomato (Solanum lycopersicum)) (UniProt K4C741)
[2] = target: FLAG-tagged SlUBC33 (tomato (Solanum lycopersicum)) (UniProt K4BN65)
[3] = target: FLAG-tagged SlUBC32 (tomato (Solanum lycopersicum)) (UniProt K4DHV2)

Measured: binding

HA-tagged SlUBA1 (Solanum lycopersicum ubiquitin-activating enzyme 1) (from UniProt A0A3Q7GMH0)
binds: all assays above

HA-tagged SlUBA2 (Solanum lycopersicum ubiquitin-activating enzyme 2) (from UniProt A0A3Q7I083)
binds: all assays above

These are yes or no findings as the source states them, for the method shown. Binding seen in cells or lysates may run through a third protein. Binding calls can cover weak binding; strength is not graded here.
